Source: PMC6270530, “Structural Characterization of de Novo Designed L5K5W Model Peptide Isomers with Potent Antimicrobial and Varied Hemolytic Activities” (Molecules, 2013)
No end group written: not given here.

System: human red blood cells
Format: cell-based
Settings: TI' = MHC/GM; for TI' (pseudo-therapeutic index) (+, −): against all nine of the tested strains; for TI' (pseudo-therapeutic index) (−): against five Gram-negative strains tested; for TI' (pseudo-therapeutic index) (+): against four Gram-positive strains tested
Method: The hemolytic assay was performed as described previously. In brief, suspensions of human red blood cells (10% v/v in PBS) were treated for 1 h with various concentrations (1–128 μg/mL, two-fold serial dilutions) of the peptides. The absorbance of the supernatant was then measured at 550 nm. The relative value to 100% hemolysis of human red blood cells treated with 0.2% Triton X-100 was defined as the percentage of hemolysis. The tests were performed using triplicate samples, and the average values of the three independent measurements were recorded. The minimal hemolytic concentration (MHC) value was determined as the lowest peptide concentration that produces more than 5% hemolysis.

| Substance | TI' (pseudo-therapeutic index) (+, −) | TI' (pseudo-therapeutic index) (−) | TI' (pseudo-therapeutic index) (+) |
| --- | --- | --- | --- |
| KKLLKKLLKWL-NH2 [W10] | 21.8 | 18.4 | 26.9 |
| KKLLKWLKKLL-NH2 [W6] | 10.1 | 9.2 | 11.3 |
| KLLKKLLKWLK-NH2 [W9] | 27.4 | 27.9 | 26.9 |
| KLLKWLKKLLK-NH2 [W5] | 27.4 | 24.3 | 32.0 |
| KWLKKLLKKLL-NH2 [W2] | 6.9 | 7.0 | 6.7 |
| LKKLLKKLLKW-NH2 [W11] | 43.5 | 36.8 | 53.8 |
| LKKLLKWLKKL-NH2 [W7] | 47.0 | 42.2 | 53.8 |
| LKWLKKLLKKL-NH2 [W3] | 20.2 | 18.4 | 22.6 |
| LLKKLLKWLKK-NH2 [W8] | 32.0 | 27.9 | 38.1 |
| LLKWLKKLLKK-NH2 [W4] | 43.5 | 36.8 | 53.8 |
| WLKKLLKKLLK-NH2 [W1] | 11.8 | 10.6 | 13.5 |
